Measured values taken from PubChem BioAssay AID1794845 (National Center for Advancing Translational Sciences (NCATS), 2023).
The whole screen tested about 6,900 compounds, of which fewer than 10 were called active. Calls come from the whole dose curve; as a rule, active = well fitted curve in the direction sought with a large enough effect; inconclusive = small, poorly fitted or top-dose-only effect, or another doubt; inactive = no such curve, though single readings can be large or run the other way. This is one part of the list.

Sequences of proteins named here, by UniProt entry; tags and fusion partners are left off. A change or cut given only in a name is not applied to a line headed by its entry.
UniProt C7C422: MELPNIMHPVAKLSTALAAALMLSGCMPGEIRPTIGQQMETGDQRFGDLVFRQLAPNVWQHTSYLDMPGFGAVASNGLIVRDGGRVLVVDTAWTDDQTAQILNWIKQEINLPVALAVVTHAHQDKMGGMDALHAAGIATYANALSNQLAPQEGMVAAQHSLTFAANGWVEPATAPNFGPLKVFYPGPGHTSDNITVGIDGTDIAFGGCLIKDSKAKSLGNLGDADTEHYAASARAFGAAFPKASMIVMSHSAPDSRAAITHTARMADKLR

target: Metallo-beta-lactamase type 2 (Klebsiella pneumoniae) (UniProt C7C422); test: qHTS to identify inhibitors of the New Delhi Metallo-beta-lactamase (NDM): primary screen against the NCATS Gemini Collection; details: NDM-1 enzyme, meropenem hydrolysis, absorbance 300 nm; at 38.4 µM (top of the series) unless noted; note: % of control where 0% means no effect
Excerpt: Assay Submitter (PI): James Inglese Ph.D., Patricia Dranchak Ph.D., Mahesh Aitha Ph.D. Assay Development and Screening Technology Laboratory (ADST) National Center for Advancing Translational Sciences (NCATS), Rockville, MD National Institute of Health (NIH), Bethesda, Maryland The metallo-beta-lactamases (MBL) are a main antibiotic resistance mechanism evolved by bacteria. There is an urgent clinical need for MBL inhibitors to mitigate this growing threat. To support a machine-based learning study, qHTS has been used to experimentally test inhibitors identified by prediction tools.
PROTOCOL TABLE (as described by Inglese et al., 2007) SEQUENCE No. (e.g., 1, 2, 3, etc.); […] (e.g., enzyme, Incubation, Reagent, etc.); VALUE; DESCRIPTION 1; NDM-1; 4 uL of 3 nM enzyme [2 nM final] in 50 mM HEPES (pH 7.0), 1 uM […], 0.01% Tween20; Use BioRaptr to dispense into Aurora black, clear bottom low base 1536-well plates 2; Compounds; 23 nL; Use Pin Tool (Wako) to transfer DMSO control and library compounds in DMSO 3; Incubate; >30 min 4; Reagent; 2 uL of 150 uM meropenem [50 uM final] 5; Incubate; 30 min. 6; Detector; Absorbance at 300 nm (bandwidth = 5 nm, 25 flashes/well) on Tecan Infinity NOTES (numbers refer to sequence above) 1; Column 1 of each plate received assay buffer without enzyme and columns 2-48 received enzyme for a final assay concentration of 2 nM. 2; Control plate contained DMSO in columns 1, 2, 3, and 4. 3; Compound interaction with enzyme. 4; Meropenem substrate was prepared in the same assay buffer as step 1 for a final assay concentration of 50 uM and added to all wells across the assay plates. 5; Substrate interaction with enzyme, plateau phase of kinetics. 6; Default reader settings were applied for absorbance read at 300 nm, bandwidth = 5 nm, 25 flashes/well. References: Inglese J, Shamu CE, Guy RK. 2007. Reporting data from high-throughput screening of small-molecule libraries. Nat Chem Biol. doi:10.1038/nchembio0807-438 Yasgar A, Shinn P, Jadhav A, Auld D, Michael S, Zheng W, Austin CP, Inglese J, Simeonov A. 2008. Compound Management for Quantitative High-Throughput Screening. J Lab Autom 13:79 - 89. doi:10.1016/j.jala.2007.12.004

Activity % (negative = inhibition), inactive:
COc1ccc(C2(C(=O)N3CCCC(Cn4c(C)nc5cccnc54)C3)CCCCC2)cc1 (stereo not drawn) 7.78%
NC(=O)c1ccc2c(c1)C1(CCN(CC3CC3)C1)CN2Cc1ccccc1 (stereo not drawn) 13.5% [at 57.5 µM]
O=C(c1cc2ccccc2o1)N1CCC2(CCCN(Cc3ccccc3F)C2)C1 (stereo not drawn) 8.54%
CC(C)Oc1ccc2c(NC(=O)[C@H]3CCCO3)nn(CC(F)(F)F)c2c1 5.49%
O=C(CC1C(=O)NCCN1Cc1ccoc1)NCc1nnc2n1CCCCC2 (stereo not drawn) 1.94%
CNC(=O)N1CCC(C2CCN(C(=O)CCn3cccn3)C2)CC1 (stereo not drawn) 7.59%
O=C(Cn1nc2c(cc1=O)CCCCC2)NC1CCN(C(=O)c2cc3ccccc3[nH]2)CC1 25.4%
Cc1nc([C@@H]2CN(C(=O)c3ccc(Cn4ccnc4)o3)C[C@H]2C(N)=O)n[nH]1 6.59%
O=C(C1CCCN1[S+](=O)([O-])c1cccc(C(F)(F)F)c1)N1CCC(N2CCCC2=O)CC1 (stereo not drawn) -0.338%
NC(=O)CNC(=O)C1=C[C@@H](NC(=O)Cc2cccs2)[C@@H](O)[C@H](O)C1 22.9% [at 57.5 µM]
COc1ccccc1CC(=O)N1CCc2c(nc3cc(-c4ccccc4Cl)[nH]n3c2=O)C1 17.7%
COc1ccc2c(c1)C=C(CN1CCCC(O)(CN(C)C)C1)CO2 (stereo not drawn) -0.563%
OCc1cc(CC2(NCc3ccccc3O)COC2)no1 2.49% [at 77.1 µM]
CC(C)c1ccc(CN2CCCC3(CCN(c4ncccc4C(N)=O)C3)C2)cc1 (stereo not drawn) 0.425%
CN(C)C[C@@H]1CN(c2ncccn2)C[C@H]1N 7.67%
CN(CCc1ccccn1)C(=O)CCC[C@@H]1[C@H]2CCCN3CCC[C@@H](CN1C(=O)c1ccccc1)[C@@H]23 -3.25%
Cc1ccc(CNC(=O)c2ccc3c(c2)CN(Cc2scnc2C)CCO3)cc1 6.22%
CN(C)C(=O)CCC(=O)N1CC[C@@](C)(O)[C@@H](Cc2ccccc2)C1 1.71%
Nc1ncc(C(=O)N2CCC3(CC2)[C@H](O)C[C@@H]3O)c(C(F)(F)F)n1 34.6%
COc1cccc([C@@H]2CN(C(=O)c3oc(C)nc3C)C[C@H]2C(=O)O)c1OC 3.1%
O=[S+]1([O-])NC2(CCN(Cc3ccccc3C(F)(F)F)C2)CNc2ccccc21 (stereo not drawn) -0.385%
O=C1CC2(CCN(C(=O)C3CCN(C(=O)c4ccccc4F)CC3)CC2)Oc2ccccc2N1 -5.39%
Cc1ccc(C(=O)N2C[C@@H](C)[C@](O)(C3CC3)C2)s1 11.1%
O=C(CCc1ccccc1)N1CC(Oc2ccccc2-c2nc(-c3ccccc3)no2)C1 7.45%
CC(=O)NC1(C)CCN(Cc2cccc(-c3ccc4c(ccn4C)c3)c2)C1 (stereo not drawn) 0.486% [at 57.5 µM]
Cn1nccc1-c1cc2c(cn1)CN(Cc1ccncc1)CCN2 9.19% [at 57.5 µM]
Cc1cccc(CC(=O)N2CCCn3cc(-c4cccc(C#N)c4)nc32)c1 11.8%
CCCc1noc(-c2cccn3c(CNC(=O)c4ccc(OCC)cc4)nnc23)n1 1.32%
CN(C)C(=O)c1nc2sccn2c1Br 2.33% [at 57.5 µM]
CN(CC1CCOC1)C(=O)NCc1ccc(F)cc1 (stereo not drawn) -1.01%
O=C(CN1CCOC1=O)N1CCn2nc(C(O)Cc3ccccc3)cc2C1 (stereo not drawn) 34.2%
O=C(NC1CCCCC1)O[C@@H]1CO[C@H]2[C@@H]1OC[C@@H]2n1nnnc1SCc1ccco1 101%
CN(Cc1nc(-c2ccccc2)cs1)C(=O)c1cccc(-n2cnnc2)c1 0.0622%
CCOc1ccccc1NC(=O)N1CCCCC1CCn1cc(C(=O)NCC2CC2)nn1 (stereo not drawn) 4.32%
O=C(O)[C@@H]1CN(C(=O)Cc2ccc(O)cc2)C[C@H]1c1cccc(F)c1 15.3%
Cc1ccc(S(=O)(=O)NC[C@H]2OC[C@@H](N(C)C)[C@@H]2O)cc1 -1.2% [at 57.5 µM]
COc1ccc(OC)c(CN2CCNc3cc(-c4ccnc(C)c4)ncc3C2)c1 9.57% [at 57.5 µM]
CCn1nc(C(C)C)cc1C(=O)N1C[C@@H]2CCN(C)C[C@]2(C(=O)O)C1 1.2%
Cc1csc(NC(=O)[C@@H]2C[C@@H](c3ccc(F)cc3)N([S+](=O)([O-])c3cccnc3)C2)n1 0.162%
O=C1CN(CC(=O)N2CCC3(CC2)OCCCC3O)C(=O)N1 (stereo not drawn) -0.195%
Cc1ccc(-n2ncc3c2CC(C)(C)CC3NS(=O)(=O)c2cn(C)cn2)cc1 (stereo not drawn) 1.82%
c1ccc(-c2cc3c(cn2)NCCN(CC2CC2)C3)cc1 46.1% [at 77.1 µM]
Cn1ccc(C(=O)NCc2nnc3n2C(C(=O)NCC2CC2)CC3)n1 (stereo not drawn) 4.06%
Cn1nccc1C(=O)N1CCCC(c2nc(-c3ccccc3)no2)CCNC(=O)CC1 (stereo not drawn) 12.1%
Cc1ccccc1[C@H]1C[C@@H](O)[C@@H](O)[C@@H]1NC(=O)c1c(-c2ccccc2)noc1C -2.08% [at 57.5 µM]
Cc1cccc(CNC(=O)C2CCc3sc(C(=O)N4CCOCC4)cc3C2)c1 (stereo not drawn) 8.54%
NC(=O)[C@@H]1CCCN1C(=O)c1ccc2oc(-c3cccc(F)c3)nc2c1 0.0424%
NCC(=O)N1CCC2(CC1)C(=O)NCN2C(=O)c1ccc(Cl)cc1 4.53%
O=C1CCN(C(=O)[C@@H]2CCCN2C(=O)Nc2ccccc2)CCCCCCN1 -1.52%
CN(C)CCN(C)[C@H]1[C@@H]2OC[C@@H](O2)[C@@H](NCc2ccc(N(C)C)cc2)[C@@H]1O 11.5% [at 57.5 µM]
O=C(NC1CCCCCC1)c1ccc2c(c1)CC(=O)N2Cc1cccc(F)c1 21.3%
Cc1nn(C)c(C)c1S(=O)(=O)NCCc1noc(-c2cccnc2)n1 -3.56%
Cc1noc(C)c1-c1cc2c(cc(C)n2CCN(C)C)c(Nc2ccncn2)n1 17.6% [at 57.5 µM]
Cc1cc(C(F)(F)F)nc(CNc2cc(C3CC(O)C3)nc(N)n2)n1 (stereo not drawn) 1.44%
Cc1nn(C)c(C)c1CCN(C)C(=O)C1CCN(C(=O)N2CC3CC(C2)[C@H]2CCCC(=O)N2C3)CC1 (stereo partly drawn) 9.81%
COc1ccc(N2CCN(C(=O)c3cc4c(s3)CN(C3CCCC3)C4)CC2)cc1 -2.91%
CCCN1CCN(C(=O)c2ccc3c(c2)n(CC)c(=O)c2ccnn23)CC1 5.48%
Cc1ccc(S(=O)(=O)Nc2ccc3c(c2)CN(CCc2ccc(F)cc2)C(=O)C(C)O3)cc1F (stereo not drawn) 3.65%
COc1ccc(C(=O)NC[C@@H]2CC[C@H]3C[C@@H]2C3(C)C)cc1 -4.6% [at 57.5 µM]
OC[C@@H]1CNC[C@H]1c1nc(-c2ccncc2)no1 25.5%
O=C(NCc1cc(F)ccc1F)[C@@H]1CNC[C@H]1COc1cccnc1 9.81%
CN(C)Cc1cn(C[C@H]2C[C@@H](NS(=O)(=O)c3ccccc3)[C@H](O)[C@@H]2O)nn1 -0.515% [at 57.5 µM]
COc1ccccc1N1CCN(CC[C@@H]2CC[C@H](O)[C@@H](C(=O)Nc3ccccc3)O2)CC1 7.34%
CN(Cc1cccs1)Cc1cccn1C 8.99% [at 115 µM]
O=C(CNC(=O)c1ccc(-c2cccc(C(F)(F)F)c2)cc1)NCC(F)(F)F 2.39%
CCCCc1nn(CC(=O)N2CCOC(c3ccccc3)C2)c(=O)n1CC (stereo not drawn) -0.729%
CC(C)NC(=O)NC[C@H]1OC[C@@H](NCc2ncc[nH]2)[C@@H]1O -0.444% [at 57.5 µM]
CCN(C1CCOCC1)C1CN(C(=O)c2ccccn2)C1 5.74%
COCCn1nnnc1C1CC2(CCOCC2)C(=O)N1CCc1ccc(OC)c(OC)c1 (stereo not drawn) -3.87%
O=C(c1ccsc1)N1CCc2c(nc3cc[nH]n3c2=O)C1 1.33%
Cc1ccc(C2=NC3(CCN(C(=O)COc4cccc(C)c4)CC3)ON2)cc1 2.18%
Cc1ccc(C(=O)N2C[C@@H](CN3CCOCC3)[C@@H](CO)C2)cc1O 34.9%
CCCn1ncc(C(=O)NCC2(O)CCCNC2)c1C (stereo not drawn) 8.69%
O=C(Nc1ccc(Oc2cccnc2)cc1)C1CCN(CCCc2ccccc2)CC1 -5.62%
Cc1ccc(S(=O)(=O)N(C)C2CCc3ccccc32)cc1 (stereo not drawn) 2.91% [at 57.5 µM]
COCc1nnc2n1CCC(NC(=O)Cn1nc(C(F)(F)F)cc1C)CC2 (stereo not drawn) -0.452%
NC(=O)c1nnn([C@H]2CCN3C(=O)[C@@H](Cc4ccccc4)NC(=O)[C@@H]3C2)c1C(N)=O -0.053% [at 57.5 µM]
CCCCN1CCN(C(=O)c2cn3ccnc(-c4ccccc4)c3n2)CC1 35.2%
COCC1CN(C)CC12CCN(C1CCOCC1)CC2 (stereo not drawn) -3.49%
COc1ccccc1OC1(C(=O)O)CCN(C(=O)CC2CC2)CC1 0.0855%
CC(C)CCN1CCC(N2CCN(C(=O)c3ccc(Br)o3)CC2)C1=O (stereo not drawn) 57%
CN(C)C(=O)N1CCC(c2nc(C3CCOC3)n[nH]2)CC1 (stereo not drawn) 10.2%
COc1cccc(CN2CCCC(c3nc(-c4cccnc4)no3)CCNC(=O)CC2)n1 (stereo not drawn) -0.832%

Of the compounds above, these have bromine.
Activity % (negative = inhibition), inactive:
CN(C)C(=O)c1nc2sccn2c1Br 2.33% [at 57.5 µM]
CC(C)CCN1CCC(N2CCN(C(=O)c3ccc(Br)o3)CC2)C1=O (stereo not drawn) 57%

Two entries picked at random from the list so far:
Activity % (negative = inhibition), inactive:
O=C(Nc1ccc(Oc2cccnc2)cc1)C1CCN(CCCc2ccccc2)CC1 -5.62%
CC(C)NC(=O)NC[C@H]1OC[C@@H](NCc2ncc[nH]2)[C@@H]1O -0.444% [at 57.5 µM]
